In PMC5348406:
Results are given in words; binding and its absence hold for the method and conditions named. Binding seen in cells or lysates may run through a third protein. Some binding calls cover weakened binding; strength is not graded here.

Sequences of proteins named here, by UniProt entry; tags and fusion partners are left off.
UniProt O15205: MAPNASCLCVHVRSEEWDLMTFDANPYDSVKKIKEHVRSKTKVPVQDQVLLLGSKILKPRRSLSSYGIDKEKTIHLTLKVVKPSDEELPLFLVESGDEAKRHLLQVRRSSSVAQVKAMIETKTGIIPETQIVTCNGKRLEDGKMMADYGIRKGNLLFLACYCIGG
UniProt O15392: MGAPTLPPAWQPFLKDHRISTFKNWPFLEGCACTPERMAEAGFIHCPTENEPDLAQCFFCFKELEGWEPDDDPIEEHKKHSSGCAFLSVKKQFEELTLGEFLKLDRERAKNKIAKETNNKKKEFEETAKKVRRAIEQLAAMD

Tests used:
[1] = molecular target: HLA-F locus adjacent transcript 10 (FAT10) (human) (UniProt O15205); test: co-IP; lysates of 5637 and UM-UC-3 cells; performed as previously described (ref. 34); which partner was precipitated is not told
His-FAT10 (human) = His-FAT10 (human) (UniProt O15205); test: co-IP; lysates of 5637 and UM-UC-3 cells transfected with increasing amounts of His-FAT10 plasmid; immunoprecipitation with anti-Ub and anti-FAT10 beads, Survivin detected

For Survivin (from UniProt O15392 1-142), the binding [1] was “binds” and the binding (His-FAT10 (human)) was “binds”.
